PubChem BioAssay AID624246 (National Center for Advancing Translational Sciences (NCATS), 2012)
The campaign covered roughly 370,000 compounds. About 100 (0.027%) were called active. Inconclusive results, whose numbers are uncertain, are shown with a selection of clear calls. Calls come from the whole dose curve; as a rule, active = well fitted inhibition curve with a large enough effect in the polarisation, with a control signal flat; inconclusive = small, poorly fitted or top-dose-only effect, or effect the other way, or a change in a side signal; inactive = no such curve, though single readings can be large or run the other way; the % refers to the polarisation. Where the call is inconclusive, the potency comes from a doubtful curve fit. “Side channel” marks fits to a control or component signal instead of the main read-out.
Potency is the fitted concentration of half-maximal effect.
Throughout, for FP activity, negative = inhibition: % of control where 0% means no effect.

By UniProt entry, the sequences of proteins in these tests, tags left out.
UniProt P11308, whole entry, looked up: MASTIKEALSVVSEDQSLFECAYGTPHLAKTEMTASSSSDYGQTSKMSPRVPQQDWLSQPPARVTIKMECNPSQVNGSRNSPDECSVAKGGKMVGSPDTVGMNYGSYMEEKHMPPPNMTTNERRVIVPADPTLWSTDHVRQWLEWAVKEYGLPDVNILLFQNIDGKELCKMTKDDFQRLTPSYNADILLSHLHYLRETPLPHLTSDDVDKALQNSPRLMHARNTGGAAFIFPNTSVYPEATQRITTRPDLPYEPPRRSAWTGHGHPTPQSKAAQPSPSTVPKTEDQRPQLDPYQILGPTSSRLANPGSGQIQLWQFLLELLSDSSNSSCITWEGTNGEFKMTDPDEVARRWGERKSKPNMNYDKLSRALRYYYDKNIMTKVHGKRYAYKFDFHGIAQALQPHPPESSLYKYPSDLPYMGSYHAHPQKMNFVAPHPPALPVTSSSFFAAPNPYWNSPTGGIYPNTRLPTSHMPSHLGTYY

Each compound was assayed against Transcriptional regulator ERG (Homo sapiens) (UniProt P11308) (assay: qHTS for Small Molecule Inhibitors of the ERG Ets/DNA interaction). Conditions: fluorescence polarization, His-ERG Ets domain / labelled DNA; FP activity, negative = inhibition: at 76.9 µM (top of the series).
Outline: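 His-tagged ERG Ets domain (1 uM in the protein solution; 300mM KCl, 50mM Tris-HCl, 1mM EDTA, 1mM DTT, pH 7.5) received compound, then a probe mix of 5 nM fluorescein-DNA and 100nM Texas-615-DNA. Fluorescence polarization was read for both dyes.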
In the case of `Cn1c(=O)c2c(nc(N/N=C/c3ccc(OC(=O)c4ccco4)cc3)n2Cc2ccc(F)cc2)n(C)c1=O`, the “FP activity, negative = inhibition” value was inactive: -12.6%.
`O=C(Nc1ccccc1)N1CCC(c2nc(-c3ccc(S(=O)(=O)N4CCOCC4)cc3)no2)CC1` was tested, and the “FP activity, negative = inhibition” value was inactive: -0.555%.
In the case of `O=C(c1cc(-c2ccc(O)cc2)on1)N1CCc2ccccc2C1`, the “FP activity, negative = inhibition” value was inactive: 0.414%.
For `Nc1ncnc2c1ncn2C1O[C@H](CO)[C@@H](O)[C@@H]1O` (some centres undefined), the “FP activity, negative = inhibition” value was inactive: -3.08%.
For `Oc1ccc2c(c1)OCC1(O)Cc3cc(O)c(O)cc3C21` (centres undefined), the Potency was active: 12.6 µM.
In the case of `CCOc1ccc(NC(=O)c2cc3c(-c4ccccc4F)nn(C)c3s2)cc1`, the Potency was inconclusive: 44.7 µM [fluorescent, side channel, single point].
For `CCOC(=O)c1ccc(NC(=O)c2c(NCc3cccs3)sc3c2CCCCC3)cc1`, the “FP activity, negative = inhibition” value was inactive: 4.55%.
In the case of `O=C(NC1CCCC1)C1CCC(CNS(=O)(=O)c2cccs2)CC1` (centres undefined), the Potency was inconclusive: 6.31 µM [inhibitor, partial curve, poor fit].
`C=CCOc1ccc(/C=N/NC(C)=O)cc1OCC` was tested, and the Potency was inconclusive: 39.8 µM [inhibitor, partial curve].
For `C#C[C@]1(O)CCC2C3CCC4=CC(=O)CC[C@@H]4C3CC[C@@]21C` (some centres undefined), the Potency was inconclusive: 7.08 µM [inhibitor, partial curve, poor fit].
With `Cc1ccc2c(c1)c1c3n2CCN(C(=O)c2ccc(C(F)(F)F)cc2)C3CCC1` (centres undefined) the Potency was inconclusive: 5.62 µM [quencher, side channel, partial curve, poor fit].
In the case of `N#C/C(=C\c1ccc(O)c([N+](=O)[O-])c1)c1nc2ccccc2s1`, the Potency was inconclusive: 7.08 µM [quencher, side channel, single point].
For `CCN1CCN(c2cc(C)c3cc(NC(=S)NCCCN4CCc5ccccc5C4)ccc3n2)CC1`, the “FP activity, negative = inhibition” value was inactive: 20.2%.
`O=C(CN1C(=O)COc2ccc(S(=O)(=O)N3CCCCCC3)cc21)N1CCN(c2ccccc2F)CC1` was tested, and the Potency was inconclusive: 100 µM [inhibitor, single point].
`O=C(c1ccc2c(Cl)c3c(nc2c1)CCCC3)N1CCN(c2cccc(C(F)(F)F)c2)CC1` was tested, and the Potency was inconclusive: 11.2 µM [quencher, side channel, full curve, poor fit].
With `O=c1[nH]c(-c2ccc(O)cc2)nc2scc(-c3cccs3)c12` the “FP activity, negative = inhibition” value was inactive: -2.47%.
`CCc1ccc(CN(C)Cc2nc(COc3ccccc3)no2)nc1` was tested, and the “FP activity, negative = inhibition” value was inactive: -1.3%.
In the case of `COc1cc(/C=N/NC(=O)C(=O)NCc2ccco2)cc(Br)c1O`, the Potency was inconclusive: 8.91 µM [inhibitor, single point].
`O=C(NNc1c2ccccc2nc2ccccc12)c1cccc(O)c1` was tested, and the Potency was inconclusive: 35.5 µM [quencher, side channel, partial curve, poor fit].
